Laboratory results: PubChem BioAssay AID652243 (Drosophila RNAi Screening Center, 2013)
The screen tested about 24,000 reagents; shown is a random part of those with a known target gene and a result. In the full data, 246 (1%) are marked active. 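Plates not normalised; calls are printed but the firefly/Renilla ratio behind them is not deposited; fold cut for lowering reported inconsistently.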 The raw values are shown without normalisation. Names joined by + are all predicted targets of the reagent. Not given: the amount of reagent.

Assay: 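Fly genes required for human androgen receptor driven transcription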 (primary screen)
System: Drosophila S2R+ cells
Reagents: long dsRNA against Drosophila genes
Timing: 72 h (48 h, then 24 h hormone)
Treatment: synthetic androgen R1881 at 10 nM for 24 h
Measurement: 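Per-well raw luminescence of the androgen-driven firefly reporter and of the Renilla control, two replicates each, without normalisation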
Reading the numbers: firefly reporter light: higher = more light from androgen-responsive reporter; Renilla control light: higher = more constitutive control signal (cell number, transfection)
Rule for the call: 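Across duplicate plates, a knock-down whose log firefly/Renilla ratio shifted a set fold down or up from the GFP/LacZ control mean was a hit; the downward cut appears as both 1.5 and 3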
Calls: active = hit: reporter lowered or raised; inactive = no hit

gene | dsRNA | firefly reporter light, replicate 1 | firefly reporter light, replicate 2 | Renilla control light, replicate 1 | Renilla control light, replicate 2 | call
CG5758 | DRSC02889 | 1.46e5 | 1.00e5 | 1.63e6 | 1.37e6 | inactive
CG5758 | DRSC02890 | 1.66e5 | 2.24e5 | 1.63e6 | 1.94e6 | inactive
CG5758 | DRSC29658 | 5.72e5 | 5.56e5 | 8.92e5 | 8.92e5 | inactive
CG34330 | DRSC20043 | 2.20e5 | 1.39e5 | 1.19e6 | 5.25e5 | inactive
CG34330 | DRSC29637 | 2.88e5 | 4.19e5 | 4.78e5 | 4.78e5 | inactive
Prosalpha7 (Proteasome alpha7 subunit) | DRSC07516 | 1.37e6 | 1.18e6 | 2.26e6 | 1.65e6 | inactive
Prosalpha7 (Proteasome alpha7 subunit) | DRSC29365 | 4.53e5 | 4.25e5 | 7.23e5 | 7.23e5 | inactive
fray (frayed) | DRSC16950 | 1.08e5 | 1.37e5 | 1.54e6 | 1.36e6 | inactive
fray (frayed) | DRSC36742 | – | – | – | – | inactive
fray (frayed) | DRSC36743 | – | – | – | – | inactive
sax (saxophone) | DRSC07675 | 1.24e6 | 4.83e5 | 1.71e6 | 1.15e6 | inactive
sax (saxophone) | DRSC26844 | 4.03e5 | 3.88e5 | 7.66e5 | 7.13e5 | inactive
sax (saxophone) | DRSC37004 | – | – | – | – | inactive
CG15870 | DRSC06588 | 3.42e5 | 1.62e5 | 1.67e6 | 1.67e6 | inactive
CG15870 | DRSC26344 | 2.25e5 | 2.79e5 | 7.42e5 | 8.21e5 | inactive
Cpr49Aa (Cuticular protein 49Aa) | DRSC07197 | 5.60e5 | 3.68e5 | 2.07e6 | 1.87e6 | inactive
PH4alphaMP (prolyl-4-hydroxylase-alpha MP) | DRSC17031 | 1.90e5 | 2.61e5 | 1.98e6 | 2.26e6 | inactive
CG9839 | DRSC16574 | 47747 | 21033 | 2.82e5 | 3.60e5 | inactive
CG1835 | DRSC20560 | 2.27e5 | 1.77e5 | 8.67e5 | 5.25e5 | inactive
CG13244 | DRSC21642 | 7.17e5 | 6.06e5 | 2.59e6 | 2.04e6 | inactive
Cda9 (Chitin deacetylase-like 9) | DRSC06593 | 86809 | 52462 | 1.36e6 | 1.36e6 | inactive
Pdf (Pigment-dispersing factor) | DRSC16786 | 4.33e5 | 3.14e5 | 2.72e6 | 3.00e6 | inactive
CG42322 | DRSC15112 | 92933 | 85105 | 5.86e5 | 9.50e5 | inactive
CG42322 | DRSC15113 | 2.48e5 | 3.11e5 | 3.14e6 | 3.14e6 | inactive
CG42322 | DRSC24976 | 7.95e5 | 7.27e5 | 9.11e5 | 8.49e5 | inactive
CG3301 | DRSC15471 | 78186 | 87860 | 5.77e5 | 6.10e5 | inactive
RPA3 (Replication protein A3) | DRSC19658 | 4.81e5 | 4.27e5 | 4.93e6 | 3.62e6 | inactive
CG4424 | DRSC15576 | 59153 | 74306 | 6.75e5 | 5.75e5 | inactive

Continued (7 carried over from the part before).
gene | dsRNA | firefly reporter light, replicate 1 | firefly reporter light, replicate 2 | Renilla control light, replicate 1 | Renilla control light, replicate 2 | call
Pdf (Pigment-dispersing factor) | DRSC16786 | 4.33e5 | 3.14e5 | 2.72e6 | 3.00e6 | inactive
CG42322 | DRSC15112 | 92933 | 85105 | 5.86e5 | 9.50e5 | inactive
CG42322 | DRSC15113 | 2.48e5 | 3.11e5 | 3.14e6 | 3.14e6 | inactive
CG42322 | DRSC24976 | 7.95e5 | 7.27e5 | 9.11e5 | 8.49e5 | inactive
CG3301 | DRSC15471 | 78186 | 87860 | 5.77e5 | 6.10e5 | inactive
RPA3 (Replication protein A3) | DRSC19658 | 4.81e5 | 4.27e5 | 4.93e6 | 3.62e6 | inactive
CG4424 | DRSC15576 | 59153 | 74306 | 6.75e5 | 5.75e5 | inactive
CG31870 | DRSC21681 | 6.80e5 | 6.89e5 | 2.56e6 | 2.26e6 | inactive
CG31870 | DRSC27838 | 4.44e5 | 4.79e5 | 5.75e5 | 1.03e6 | inactive
CG5225 | DRSC24962 | 5.94e5 | 9.78e5 | 7.78e5 | 7.57e5 | inactive
CG18581 | DRSC10324 | 1.05e5 | 88254 | 7.04e5 | 7.99e5 | inactive
CG4382 | DRSC02743 | 2.75e5 | 2.09e5 | 2.14e6 | 1.62e6 | inactive
CG4382 | DRSC29493 | 6.95e5 | 1.10e6 | 1.74e6 | 1.74e6 | inactive
CG14630 | DRSC18166 | 1.04e5 | 1.09e5 | 2.32e6 | 2.57e6 | inactive
CG14630 | DRSC18653 | 1.38e5 | 1.40e5 | 2.75e6 | 2.20e6 | inactive
CG43394 | DRSC01013 | 69362 | 72836 | 2.83e5 | 2.69e5 | inactive
CG43394 | DRSC21835 | 1.08e6 | 1.11e6 | 1.58e6 | 1.89e6 | inactive
CG43394 | DRSC28255 | 4.95e5 | 7.46e5 | 1.20e6 | 2.07e6 | inactive
robl37BC | DRSC02472 | 1.11e5 | 1.17e5 | 1.50e6 | 1.44e6 | inactive
Mec2 | DRSC20054 | 46681 | 86878 | 6.69e5 | 8.59e5 | inactive
Mec2 | DRSC26162 | 3.54e5 | 3.83e5 | 7.02e5 | 7.43e5 | inactive
CG43366 | DRSC04857 | 2.61e5 | 3.62e5 | 2.56e6 | 2.95e6 | inactive
CG43366 | DRSC04864 | 2.96e5 | 3.26e5 | 2.25e6 | 1.74e6 | inactive
CG43366 | DRSC25725 | 1.65e6 | 1.24e6 | 1.47e6 | 1.04e6 | inactive
CG43366 | DRSC27579 | 2.60e5 | 2.47e5 | 6.20e5 | 7.55e5 | inactive
CG43896 | DRSC10288 | 1.59e5 | 1.95e5 | 1.75e6 | 1.65e6 | inactive
CG43896 | DRSC10754 | 2.60e5 | 1.61e5 | 1.79e6 | 1.41e6 | inactive
CG43896 | DRSC26965 | 3.51e5 | 2.59e5 | 8.55e5 | 5.54e5 | inactive
CG5273 | DRSC18612 | 3.65e5 | 2.67e5 | 2.79e6 | 2.37e6 | inactive
elav (embryonic lethal abnormal vision) | DRSC18772 | 51471 | 47995 | 6.39e5 | 3.00e5 | inactive
CG42324 | DRSC08431 | 1.02e5 | 1.12e5 | 1.56e6 | 1.80e6 | inactive
CG42324 | DRSC08432 | 1.78e5 | 1.71e5 | 1.98e6 | 1.81e6 | inactive
CG42324 | DRSC26516 | 2.67e5 | 2.54e5 | 6.55e5 | 6.30e5 | inactive
CG32026 | DRSC08950 | 1.60e5 | 2.02e5 | 4.97e5 | 4.83e5 | inactive
CG32026 | DRSC27384 | 2.91e5 | 2.95e5 | 4.68e5 | 5.39e5 | inactive
IntS11 (Integrator 11) | DRSC15407 | 84690 | 73714 | 6.63e5 | 4.16e5 | inactive
IntS11 (Integrator 11) | DRSC26912 | 3.54e5 | 4.76e5 | 7.75e5 | 7.58e5 | inactive
CG10560 | DRSC14256 | 1.95e5 | 1.53e5 | 2.10e6 | 2.09e6 | inactive
RpS4 (Ribosomal protein S4) | DRSC11272 | 2.03e5 | 2.08e5 | 1.97e6 | 1.80e6 | inactive
CG34334 | DRSC38787 | 8.44e5 | 9.59e5 | 1.81e6 | 2.01e6 | inactive
tpr (tracheal-prostasin) | DRSC04468 | 1.17e6 | 6.49e5 | 1.43e6 | 9.12e5 | inactive
tpr (tracheal-prostasin) | DRSC28107 | 4.82e5 | 8.03e5 | 1.10e6 | 1.23e6 | inactive
Nf-YB (Nuclear factor Y-box B) | DRSC02057 | 1.94e5 | 1.74e5 | 2.00e6 | 1.48e6 | inactive
bcd + CR14578 | DRSC20984 | 2.11e5 | 1.93e5 | 4.85e5 | 4.61e5 | inactive
CG7564 | DRSC10880 | 1.56e5 | 1.25e5 | 2.29e6 | 1.31e6 | inactive
CG7564 | DRSC28225 | 4.04e5 | 7.33e5 | 1.74e6 | 2.13e6 | inactive
CG14689 | DRSC14912 | 1.56e5 | 2.05e5 | 2.87e6 | 2.79e6 | inactive
CG14689 | DRSC28117 | 5.92e5 | 4.58e5 | 1.85e6 | 1.36e6 | inactive
spdo (sanpodo) | DRSC13988 | 7.95e5 | 5.76e5 | 1.55e6 | 6.02e5 | inactive
spdo (sanpodo) | DRSC24230 | 6.22e5 | 7.67e5 | 9.49e5 | 8.31e5 | inactive
CG8329 | DRSC10978 | 7.49e5 | 6.62e5 | 1.86e6 | 2.00e6 | inactive
CG8329 | DRSC26746 | 4.85e5 | 3.03e5 | 4.64e5 | 2.03e5 | inactive
Oli (Olig family) | DRSC02866 | 8.09e5 | 9.78e5 | 1.00e6 | 1.36e6 | inactive
Oli (Olig family) | DRSC26246 | 3.53e5 | 4.90e5 | 5.09e5 | 7.98e5 | inactive
